# Laboratory results: PubChem BioAssay AID1224826 (NIAID, 2016)
# Assay: 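Regulators of Tlr4 signalling leading to Tnf-alpha expression in macrophages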 (primary screen)
# Cells: RAW264.7 G9 macrophages from mouse bearing reporters for p65 (GFP) and the Tnf promoter (mCherry)
# Reagent: siRNA pool against mouse genes, 100 nM
# Duration: 16 h of LPS stimulation, after 2 days of siRNA transfection
# Conditions: bacterial lipopolysaccharide (Salmonella minnesota R595), 10 ng/ml
# Measured: 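Nuclear mCherry signal of the Tnf promoter reporter measured by imaging after background removal, scaled to each plate median and turned into robust z-scores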
# Reading the numbers: Tnf reporter robust z-score: higher = stronger Tnf promoter reporter signal after LPS
# Call rule: 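Called active when robust z-score is at most -1.3, matching the median of the Tlr4 knock-down control, or over 3; control wells and wells with under 50 cells never active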
# Meaning of the calls: active = Tnf reporter clearly lowered or raised; inactive = no clear change in Tnf reporter
# In all, the deposit lists about 17,000 reagents; shown is an unselected part. In the full data, about 1,110 (6.6%) were called active. 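Active means lowered or raised reporter signal; replicate intensities are raw and not normalised per plate.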 Not all columns of the deposit are shown.
target,Tnf reporter robust z-score,fewer than 50 cells in well,call
Arhgap18,-0.92,enough cells in well,inactive
Nanp,2.52,enough cells in well,inactive
Gpam,1.03,enough cells in well,inactive
Zfx,-0.37,enough cells in well,inactive
Mastl,1.28,enough cells in well,inactive
Traf2,-1.21,enough cells in well,inactive
Endov,1.66,enough cells in well,inactive
Htr2a,-0.07,enough cells in well,inactive
Gstt3,1.57,enough cells in well,inactive
Gja3,0.16,enough cells in well,inactive
Ubn2,0.2,enough cells in well,inactive
Prpf38a,,fewer than 50 cells per well; well left out of calls,inactive
Gimap5,0.7,enough cells in well,inactive
Ticam1,-0.94,enough cells in well,inactive
Pnoc,,fewer than 50 cells per well; well left out of calls,inactive
Shfl,0.4,enough cells in well,inactive
Tas2r130,0.58,enough cells in well,inactive
Muc13,-0.63,enough cells in well,inactive
Emx1,0.11,enough cells in well,inactive
Rab10os,0.84,enough cells in well,inactive
Ybey,3.28,enough cells in well,active
Rmnd1,1.86,enough cells in well,inactive
Vps37c,-0.69,enough cells in well,inactive
Gnl3l,0.26,enough cells in well,inactive
Nbr1,0.83,enough cells in well,inactive
Gcm1,0.21,enough cells in well,inactive
Phf11d,-0.86,enough cells in well,inactive
Vmn1r201,0.76,enough cells in well,inactive
Vstm2b,,fewer than 50 cells per well; well left out of calls,inactive
Trim54,-0.31,enough cells in well,inactive
Dimt1,-0.22,enough cells in well,inactive
Hs6st3,-1.64,enough cells in well,active
Dbi,-0.95,enough cells in well,inactive
Pde6a,1,enough cells in well,inactive
Prr15,1.79,enough cells in well,inactive

The list goes on; the last 2 above are carried over.
target,Tnf reporter robust z-score,fewer than 50 cells in well,call
Pde6a,1,enough cells in well,inactive
Prr15,1.79,enough cells in well,inactive
Defa-rs12,-0.57,enough cells in well,inactive
Sgca,-0.47,enough cells in well,inactive
Spata2,0.74,enough cells in well,inactive
Dlx6,-0.68,enough cells in well,inactive
Masp1,1.52,enough cells in well,inactive
Smco1,-0.1,enough cells in well,inactive
Guca2a,-0.31,enough cells in well,inactive
Paip1,2.58,enough cells in well,inactive
Cep20,0.4,enough cells in well,inactive
Spmip8,1.51,enough cells in well,inactive
Krt6b,-1.21,enough cells in well,inactive
Slc35h1,,fewer than 50 cells per well; well left out of calls,inactive
Xpo1,0.93,enough cells in well,inactive
Chmp2a,1.27,enough cells in well,inactive
Hps4,-0.73,enough cells in well,inactive
Tpbpb,,fewer than 50 cells per well; well left out of calls,inactive
Mllt1,-0.34,enough cells in well,inactive
Rspry1,0.16,enough cells in well,inactive
Zcchc10,-0.26,enough cells in well,inactive
Mboat1,-1.25,enough cells in well,inactive
Snx4,1.27,enough cells in well,inactive
Cdk2ap2,-0.08,enough cells in well,inactive
Tbx19,-0.51,enough cells in well,inactive
